We go through 42 sequences from paper PMC7819943, “Rice protein-binding microarrays: a tool to detect cis-acting elements near promoter regions in rice”.

Sequences of proteins named here, by UniProt entry; tags and fusion partners are left off.
UniProt Q0JBA9, entry or part of it: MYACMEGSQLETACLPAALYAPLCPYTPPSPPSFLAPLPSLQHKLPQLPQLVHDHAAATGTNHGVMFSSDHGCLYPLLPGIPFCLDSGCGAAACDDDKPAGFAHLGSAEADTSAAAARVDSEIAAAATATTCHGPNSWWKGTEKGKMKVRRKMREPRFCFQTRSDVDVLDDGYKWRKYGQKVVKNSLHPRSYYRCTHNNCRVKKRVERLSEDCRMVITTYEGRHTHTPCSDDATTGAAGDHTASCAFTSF

This is one part of the list.

For the assay, the target named is OsWRKY34 (Oryza sativa, UniProt Q0JBA9 1-250). Nature of the assay: protein-binding microarray (RPBM); PBS, 2% BSA, 51.3 ng/ul salmon testes DNA, 50 uM zinc acetate, 200 nM TF, 25 C, 1 h; high values mean tight binding. The note with it: protein: recombinant; tags: N-terminal polyhistidine and DsRed monomer fusion (pET32a); label: CyDye5-dUTP incorporated in the synthesized complementary strand; 3' TTTTT single-stranded linker to array surface; dsDNA, one strand shown. Put shortly:
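The binding signal is fluorescence intensity per array feature (arbitrary units). Readings came from an Axon 4000B scanner after a washed, 2% BSA-blocked, double-stranded custom Agilent array had been incubated for 1 h at 25 °C with 200 nM protein and 50 µM zinc acetate. The protein was a Ni–NTA-purified transcription factor fused N-terminally to polyhistidine and DsRed, expressed in E. coli BL21-CodonPlus.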
With “TGGTTAATTACGTTCCGGTTCATGCTATTGAGGTCCGTTCCGGAGTCACCTAGTGCAG”, the binding signal is 13100 fluorescence intensity (a.u.).
Next, “GTTTTGTTTCAGCCAGATGGTTTTTCATGTTAGCATTAAACGGAGTCACCTAGTGCAG”: 8470 fluorescence intensity (a.u.).
In the case of “GCTGCTCACTAGCTTCCCATTCGCTCGGCCTTGGAGCGCGCGGAGTCACCTAGTGCAG”, the binding signal is 8130 fluorescence intensity (a.u.).
In the case of “ACCTACGCTACGCAAGCTTATCTATTTGCCGCCTTTTTCACGGAGTCACCTAGTGCAG”, the binding signal is 10900 fluorescence intensity (a.u.).
On to “ACTACTTTCTCCGTTCCAAAATATAGCTACCTATTACATGCGGAGTCACCTAGTGCAG”, for which the binding signal is 8830 fluorescence intensity (a.u.).
Turning to “ATTCTATACTTGGCACAAATGCTCGTATTTAAGGTTATTTCGGAGTCACCTAGTGCAG”, the binding signal is 8250 fluorescence intensity (a.u.).
Consider “GGTTTTAAGCTTTGGAGGTGTGCATTTTTTGTACCATATTCGGAGTCACCTAGTGCAG”, for which the binding signal is 8580 fluorescence intensity (a.u.).
In the case of “CGTGGCTTCGCTCCCACCGACCACCGCCGCCGCTTCCCCGCGGAGTCACCTAGTGCAG”, the binding signal is 10300 fluorescence intensity (a.u.).
For the sequence “ACACGGTTTTCAAAACACAACTTTGACTTCTTGTTTCTATCGGAGTCACCTAGTGCAG”, the binding signal is 8180 fluorescence intensity (a.u.).
For “CCACCGCCCGCCGTCGTCTCTCTCTCTCTCTCTCTCTCTTCGGAGTCACCTAGTGCAG”, the binding signal is 9970 fluorescence intensity (a.u.).
With “CTTTTCACTTTGTACCATATGCTGATTTACTGCCTTGTTTCGGAGTCACCTAGTGCAG”, the binding signal is 10500 fluorescence intensity (a.u.).
In the case of “CGGGTCGCTGCCGCTGATTTGCCCAAGTAGATTTGGACTCCGGAGTCACCTAGTGCAG”, the binding signal was 11600 fluorescence intensity (a.u.).
Turning to “GCGTTCGGTTAAGCCCTGCCGTGAATTTTAGCCCGGCCCACGGAGTCACCTAGTGCAG”, the binding signal was 9620 fluorescence intensity (a.u.).
For “GTTGTTGTTGTTGTTGTTGTTGTTGTTGTTTCTTTGCATTCGGAGTCACCTAGTGCAG”, the binding signal was 11500 fluorescence intensity (a.u.).
With “TCATATTGTACCTTCCACTTTTATTCTTTTAAAGCCTATACGGAGTCACCTAGTGCAG”, the binding signal was 9560 fluorescence intensity (a.u.).
Next, “AAAATTGATGTTCTCTTTGGTGCATTTCTTTCTTATTGTCCGGAGTCACCTAGTGCAG”: 8490 fluorescence intensity (a.u.); “AGAGTCGCCGCCACGATGACACACACGCCACGCGCCCCGACGGAGTCACCTAGTGCAG”: 8350 fluorescence intensity (a.u.).
As to “CGGTGGGTCCCACGCGTCAGCGACCGTGGGTAGGGTGGGCCGGAGTCACCTAGTGCAG”, the binding signal was 9180 fluorescence intensity (a.u.).
“CTTTTGCCCCTGCTGCCTCTGCACACTGCACGCTCCCTTCCGGAGTCACCTAGTGCAG”: the binding signal was 8170 fluorescence intensity (a.u.).
For the sequence “GGGGCGCCGCGGGGTGGTGCTGTTGTCGGTAGGGAGGGAGCGGAGTCACCTAGTGCAG”, the binding signal was 12900 fluorescence intensity (a.u.).
As for “CTTCCCTCTCGCGTCTCCTCCTCTCCTCTCCTCGCTTCTTCGGAGTCACCTAGTGCAG”, the binding signal was 8090 fluorescence intensity (a.u.).
Turning to “TATGGCGGGAGGAGGGAGGTGGATGTAAATATATATATATCGGAGTCACCTAGTGCAG”, the binding signal is 13200 fluorescence intensity (a.u.).
With “GGTTTTGCTAGCTCCTGCCCCGCTGCATCTGTTAAATGTTCGGAGTCACCTAGTGCAG”, the binding signal was 11000 fluorescence intensity (a.u.).
Regarding “ATATGGAGAGCACCTTATTTTATTATTGCGAGTGCTCTAACGGAGTCACCTAGTGCAG”, the binding signal was 10000 fluorescence intensity (a.u.).
“ATTCTTCTTGCAGGTAACAAGCCTGCCGCCAGGCCTGGGTCGGAGTCACCTAGTGCAG”: the binding signal is 9030 fluorescence intensity (a.u.).
As for “TACTTGCACTCAGATCGTCGGCGTCTGAATTCTTCTGTTCCGGAGTCACCTAGTGCAG”, the binding signal was 10100 fluorescence intensity (a.u.).
On to “ATAGGTTGATCATAATTGTGGGAGATTTCCCCGCCGTTGACGGAGTCACCTAGTGCAG”, for which the binding signal is 8120 fluorescence intensity (a.u.).
On to “CCATCTCTCTCTCTCTCTCTCTCTCTCCCGTGCTGCTCTCCGGAGTCACCTAGTGCAG”, for which the binding signal was 10400 fluorescence intensity (a.u.).
For “CCATTTTTTTACTCGATCGATCAGCTACTCATCCACTATACGGAGTCACCTAGTGCAG”, the binding signal is 11600 fluorescence intensity (a.u.).
In the case of “GCTCCACCTTGCCGCGATCCGTCGCAATTCTTTGATTCCCCGGAGTCACCTAGTGCAG”, the binding signal is 10400 fluorescence intensity (a.u.).
Turning to “TTCTTGTTCCTTTTGCCTAGGTTTTGTCCAAGTACAACAGCGGAGTCACCTAGTGCAG”, the binding signal was 10100 fluorescence intensity (a.u.).
In the case of “CCGCCACTCCTCCCTGCCGCGCGTCGCCGCTTGTTGCGTACGGAGTCACCTAGTGCAG”, the binding signal was 9050 fluorescence intensity (a.u.).
Take “AATGTGACGAAACCAGCGCTTTGAAGCCTACTTCCTTTTCCGGAGTCACCTAGTGCAG”: the binding signal is 9590 fluorescence intensity (a.u.).
Consider “GTTCAAAATATTGCATTTTCAAGTCTAACCGTTTCAAGCTCGGAGTCACCTAGTGCAG”, for which the binding signal was 9440 fluorescence intensity (a.u.).
For the sequence “CCGATAAATATGTTTGTTAACCGTTCCACCAAAGAGTATCCGGAGTCACCTAGTGCAG”, the binding signal was 8400 fluorescence intensity (a.u.).
Consider “ATTATGTACTTCCCTAATATTCGTGTTTTGATTCAAACTACGGAGTCACCTAGTGCAG”, for which the binding signal is 8190 fluorescence intensity (a.u.).
For “AATACTCATTCTCCTGTCTCGCCTTAAAACTGATTGATCACGGAGTCACCTAGTGCAG”, the binding signal was 8920 fluorescence intensity (a.u.).
Consider “TGCACTGTTCTTTTCTTCCAGTAGTCACATAATCCTTGCACGGAGTCACCTAGTGCAG”, for which the binding signal is 8850 fluorescence intensity (a.u.).
Consider “TTCTTCCAGCCCCACGCGCCTCATTTCTTCCGCCTGACCTCGGAGTCACCTAGTGCAG”, for which the binding signal is 9830 fluorescence intensity (a.u.).
On to “CTACTACACTATAATTAAGTACACGGTTGATTTTTTTTTCCGGAGTCACCTAGTGCAG”, for which the binding signal was 9020 fluorescence intensity (a.u.).
“TTTGTTTCTTCTTTCGCTTTTTTTTTTAGCATTTAACTATCGGAGTCACCTAGTGCAG”: the binding signal is 9400 fluorescence intensity (a.u.).
“CAAGCGAGTAGTAGTAGTATAATCTGTTTTTTGCTTTTTTCGGAGTCACCTAGTGCAG”: the binding signal was 9060 fluorescence intensity (a.u.).
